From PMC5247691 come the findings set out here.

Chains of the proteins cited; added tags and fusions are not shown. Lines headed by an entry give the natural chain unless they say otherwise; changes in a name come on top. A line that says so, or that is headed by a name, gives the form on record, which may keep a tag or linker. Residues count along the entry.
UniProt Q6R327: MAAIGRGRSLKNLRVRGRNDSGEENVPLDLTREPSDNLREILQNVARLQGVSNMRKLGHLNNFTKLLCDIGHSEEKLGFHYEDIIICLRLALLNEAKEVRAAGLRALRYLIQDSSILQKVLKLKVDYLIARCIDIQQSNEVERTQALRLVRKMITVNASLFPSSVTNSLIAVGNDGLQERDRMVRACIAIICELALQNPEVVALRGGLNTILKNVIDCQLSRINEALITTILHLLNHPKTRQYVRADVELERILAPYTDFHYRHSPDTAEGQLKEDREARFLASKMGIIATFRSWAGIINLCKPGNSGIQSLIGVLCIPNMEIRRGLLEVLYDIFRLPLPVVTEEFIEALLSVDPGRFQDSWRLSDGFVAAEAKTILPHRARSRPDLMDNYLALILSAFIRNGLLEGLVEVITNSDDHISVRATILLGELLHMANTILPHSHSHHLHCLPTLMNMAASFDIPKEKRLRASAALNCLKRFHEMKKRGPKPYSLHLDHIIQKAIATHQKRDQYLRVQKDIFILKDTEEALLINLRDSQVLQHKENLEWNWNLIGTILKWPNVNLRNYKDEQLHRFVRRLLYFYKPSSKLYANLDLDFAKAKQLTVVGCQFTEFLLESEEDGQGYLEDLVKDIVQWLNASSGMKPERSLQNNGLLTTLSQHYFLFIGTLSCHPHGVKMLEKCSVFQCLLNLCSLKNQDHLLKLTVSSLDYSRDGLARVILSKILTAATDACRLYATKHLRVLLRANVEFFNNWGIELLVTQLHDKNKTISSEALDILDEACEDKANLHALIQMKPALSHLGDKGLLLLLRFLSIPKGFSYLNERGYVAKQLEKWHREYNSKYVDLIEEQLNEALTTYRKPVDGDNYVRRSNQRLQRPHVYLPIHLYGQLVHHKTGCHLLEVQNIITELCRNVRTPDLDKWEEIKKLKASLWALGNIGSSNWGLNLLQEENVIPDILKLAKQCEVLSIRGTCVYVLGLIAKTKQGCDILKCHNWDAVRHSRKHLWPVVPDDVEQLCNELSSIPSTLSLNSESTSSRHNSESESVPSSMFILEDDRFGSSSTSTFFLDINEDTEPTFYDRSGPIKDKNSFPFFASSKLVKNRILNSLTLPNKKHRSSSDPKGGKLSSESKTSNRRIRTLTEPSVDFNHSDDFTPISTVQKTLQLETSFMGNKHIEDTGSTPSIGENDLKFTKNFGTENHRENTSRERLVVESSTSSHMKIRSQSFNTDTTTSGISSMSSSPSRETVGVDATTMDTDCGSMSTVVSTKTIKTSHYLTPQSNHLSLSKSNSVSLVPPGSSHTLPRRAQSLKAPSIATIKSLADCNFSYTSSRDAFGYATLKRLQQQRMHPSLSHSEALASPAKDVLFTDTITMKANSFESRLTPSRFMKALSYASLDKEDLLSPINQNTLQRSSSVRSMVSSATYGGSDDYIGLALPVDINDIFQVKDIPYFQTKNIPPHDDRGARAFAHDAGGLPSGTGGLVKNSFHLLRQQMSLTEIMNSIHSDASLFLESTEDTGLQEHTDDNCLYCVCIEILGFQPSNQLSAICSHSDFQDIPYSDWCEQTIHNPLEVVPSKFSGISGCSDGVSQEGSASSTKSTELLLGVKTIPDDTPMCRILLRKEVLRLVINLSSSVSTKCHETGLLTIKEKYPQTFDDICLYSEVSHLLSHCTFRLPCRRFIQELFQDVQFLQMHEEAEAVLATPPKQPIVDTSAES
HA tagged Rictor aa 1181-1708: residues 1181-1708 of Q6R327
UniProt Q8N122: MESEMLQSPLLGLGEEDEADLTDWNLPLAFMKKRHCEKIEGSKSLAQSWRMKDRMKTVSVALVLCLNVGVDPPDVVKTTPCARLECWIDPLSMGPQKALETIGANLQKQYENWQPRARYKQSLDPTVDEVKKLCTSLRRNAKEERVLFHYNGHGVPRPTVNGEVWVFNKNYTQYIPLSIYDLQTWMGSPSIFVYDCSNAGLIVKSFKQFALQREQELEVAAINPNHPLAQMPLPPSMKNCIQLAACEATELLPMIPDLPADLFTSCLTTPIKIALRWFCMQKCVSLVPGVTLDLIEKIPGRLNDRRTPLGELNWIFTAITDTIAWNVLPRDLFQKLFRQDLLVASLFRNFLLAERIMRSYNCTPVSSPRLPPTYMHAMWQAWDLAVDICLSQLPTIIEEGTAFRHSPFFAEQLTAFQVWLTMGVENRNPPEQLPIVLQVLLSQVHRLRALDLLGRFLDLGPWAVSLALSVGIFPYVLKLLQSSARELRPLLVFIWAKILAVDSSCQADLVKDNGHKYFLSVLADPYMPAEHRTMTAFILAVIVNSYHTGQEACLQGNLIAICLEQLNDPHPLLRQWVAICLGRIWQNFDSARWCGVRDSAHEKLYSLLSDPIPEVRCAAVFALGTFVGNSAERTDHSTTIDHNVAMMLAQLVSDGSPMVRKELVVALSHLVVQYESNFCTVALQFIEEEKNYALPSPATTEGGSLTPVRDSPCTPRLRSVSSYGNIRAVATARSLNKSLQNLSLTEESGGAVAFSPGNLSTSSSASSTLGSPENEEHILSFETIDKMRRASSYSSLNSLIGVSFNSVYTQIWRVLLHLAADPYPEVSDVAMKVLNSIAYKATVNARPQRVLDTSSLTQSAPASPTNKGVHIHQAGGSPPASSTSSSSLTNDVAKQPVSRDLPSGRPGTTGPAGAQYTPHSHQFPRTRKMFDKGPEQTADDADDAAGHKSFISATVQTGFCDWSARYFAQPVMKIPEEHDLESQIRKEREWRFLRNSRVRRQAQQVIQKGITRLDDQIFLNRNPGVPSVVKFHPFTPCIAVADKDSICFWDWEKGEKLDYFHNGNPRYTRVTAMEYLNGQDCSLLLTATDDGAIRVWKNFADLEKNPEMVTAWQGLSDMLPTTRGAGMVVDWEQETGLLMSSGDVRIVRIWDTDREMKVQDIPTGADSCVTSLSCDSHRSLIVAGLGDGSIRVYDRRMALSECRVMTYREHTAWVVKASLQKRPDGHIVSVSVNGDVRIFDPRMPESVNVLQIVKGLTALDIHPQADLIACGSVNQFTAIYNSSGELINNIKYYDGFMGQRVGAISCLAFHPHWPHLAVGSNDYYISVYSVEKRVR

No constants are given. Whether binding was seen depends on the method and setting. Binding seen in cells or lysates may run through a third protein. Some binding calls cover weakened binding; strength is not graded here. For some of these results: Sequences can lack the tags named with a protein.

Assay [1] addresses T1, FLAG tagged hnRNP M (wild-type, full length) (UniProt P52272).
T1 sequence: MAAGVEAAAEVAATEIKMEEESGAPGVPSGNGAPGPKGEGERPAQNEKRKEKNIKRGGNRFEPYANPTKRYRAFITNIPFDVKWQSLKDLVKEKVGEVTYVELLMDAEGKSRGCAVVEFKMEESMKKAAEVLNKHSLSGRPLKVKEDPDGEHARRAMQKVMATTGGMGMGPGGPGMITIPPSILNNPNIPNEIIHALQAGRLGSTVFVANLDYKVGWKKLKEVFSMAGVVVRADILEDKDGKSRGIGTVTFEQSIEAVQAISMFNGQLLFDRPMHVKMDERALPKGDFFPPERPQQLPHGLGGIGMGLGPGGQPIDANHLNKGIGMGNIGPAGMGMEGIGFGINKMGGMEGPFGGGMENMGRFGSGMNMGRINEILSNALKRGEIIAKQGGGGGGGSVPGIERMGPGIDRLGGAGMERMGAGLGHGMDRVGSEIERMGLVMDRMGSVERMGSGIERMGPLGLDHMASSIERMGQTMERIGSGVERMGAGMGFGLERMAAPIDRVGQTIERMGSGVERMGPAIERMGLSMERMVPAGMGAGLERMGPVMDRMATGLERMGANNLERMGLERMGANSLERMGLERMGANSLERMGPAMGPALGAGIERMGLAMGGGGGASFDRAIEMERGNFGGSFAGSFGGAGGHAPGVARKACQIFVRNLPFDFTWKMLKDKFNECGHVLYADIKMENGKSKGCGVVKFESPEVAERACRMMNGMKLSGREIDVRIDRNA
As to the kind of experiment: co-IP; HEK 293T transfected with FLAG tagged plasmids only; FLAG antibody IP; blots for endogenous Rictor, Raptor and mTOR; washes include 0.5 M NaCl.

Assay [2] has as its target Rictor (endogenous, HEK 293T) (human (endogenous in HEK 293T)) (UniProt Q6R327). Nature of the assay: co-IP; endogenous proteins only: Rictor, Raptor and control (rabbit normal IgG) antibodies used to IP from HEK 293T lysates; blot for hnRNP M.
Assay [3] addresses Raptor (endogenous, HEK 293T) (human (endogenous in HEK 293T)) (UniProt Q8N122). The assay is described as above.
For assay [4], the target named is HA tagged Rictor aa 1181-1708 (UniProt Q6R327). As to the kind of experiment: co-IP; HEK 293T co-transfected with FLAG-hnRNP M and HA tagged Rictor proteins (wild-type, aa 1-860, aa 1181-1708); HA antibody IP; blots with anti-FLAG and anti-HA.

Consider “Raptor (endogenous, HEK 293T) (from UniProt Q8N122 1-1335)”, for which the binding entry in assay [1] is on record as “no binding”.

B1: hnRNP M (endogenous, HEK 293T) (protein, UniProt P52272 1-730)
chain: T1 sequence
Regarding B1, the binding result in assay [2] was “binds”; in assay [3], “no binding”.

B2: FLAG tagged hnRNP M (wild-type, full length) (protein, UniProt P52272 1-730)
chain: T1 sequence
As for B2, the binding entry in assay [4] is reported as “binds”.
